The list shows a part of the results.
Tests used:
Test in all cases: log2 fold change, soluble protein after heating vs DMSO (PISA); higher = thermal stabilisation; K562 lysate, 10 uM; active = over 0.2 and 3.5 SD of the protein, either way, in both replicates (recomputed)
alvocidib = compound: CN1CC[C@H](c2c(O)cc(O)c3c(=O)cc(-c4ccccc4Cl)oc23)[C@H](O)C1 [alvocidib]
Outline: (§1)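 To prepare the extract, K562 pellets were dounce-homogenised in PBS pH 7.4 with 1 mM MgCl2, giving crude material at 1 mg/mL protein. This was treated with 10 μM compound for 30 min, then heated in aliquots for 3 min over 48°C-58°C before pooling and addition of NP-40 to 0.5% at 4°C. Centrifugation at 21,000xg for 90 min left soluble protein in the supernatant, which TMTpro 16plex LC-MS/MS quantified with equalised channel sums. Results are log-two fold changes in thermal stability compared with solvent controls, from duplicates.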

By UniProt entry, the sequences of proteins in these tests, tags left out. Where a name states a change or a piece, a line headed by the entry shows the natural chain unless it says otherwise.
UniProt Q5T011: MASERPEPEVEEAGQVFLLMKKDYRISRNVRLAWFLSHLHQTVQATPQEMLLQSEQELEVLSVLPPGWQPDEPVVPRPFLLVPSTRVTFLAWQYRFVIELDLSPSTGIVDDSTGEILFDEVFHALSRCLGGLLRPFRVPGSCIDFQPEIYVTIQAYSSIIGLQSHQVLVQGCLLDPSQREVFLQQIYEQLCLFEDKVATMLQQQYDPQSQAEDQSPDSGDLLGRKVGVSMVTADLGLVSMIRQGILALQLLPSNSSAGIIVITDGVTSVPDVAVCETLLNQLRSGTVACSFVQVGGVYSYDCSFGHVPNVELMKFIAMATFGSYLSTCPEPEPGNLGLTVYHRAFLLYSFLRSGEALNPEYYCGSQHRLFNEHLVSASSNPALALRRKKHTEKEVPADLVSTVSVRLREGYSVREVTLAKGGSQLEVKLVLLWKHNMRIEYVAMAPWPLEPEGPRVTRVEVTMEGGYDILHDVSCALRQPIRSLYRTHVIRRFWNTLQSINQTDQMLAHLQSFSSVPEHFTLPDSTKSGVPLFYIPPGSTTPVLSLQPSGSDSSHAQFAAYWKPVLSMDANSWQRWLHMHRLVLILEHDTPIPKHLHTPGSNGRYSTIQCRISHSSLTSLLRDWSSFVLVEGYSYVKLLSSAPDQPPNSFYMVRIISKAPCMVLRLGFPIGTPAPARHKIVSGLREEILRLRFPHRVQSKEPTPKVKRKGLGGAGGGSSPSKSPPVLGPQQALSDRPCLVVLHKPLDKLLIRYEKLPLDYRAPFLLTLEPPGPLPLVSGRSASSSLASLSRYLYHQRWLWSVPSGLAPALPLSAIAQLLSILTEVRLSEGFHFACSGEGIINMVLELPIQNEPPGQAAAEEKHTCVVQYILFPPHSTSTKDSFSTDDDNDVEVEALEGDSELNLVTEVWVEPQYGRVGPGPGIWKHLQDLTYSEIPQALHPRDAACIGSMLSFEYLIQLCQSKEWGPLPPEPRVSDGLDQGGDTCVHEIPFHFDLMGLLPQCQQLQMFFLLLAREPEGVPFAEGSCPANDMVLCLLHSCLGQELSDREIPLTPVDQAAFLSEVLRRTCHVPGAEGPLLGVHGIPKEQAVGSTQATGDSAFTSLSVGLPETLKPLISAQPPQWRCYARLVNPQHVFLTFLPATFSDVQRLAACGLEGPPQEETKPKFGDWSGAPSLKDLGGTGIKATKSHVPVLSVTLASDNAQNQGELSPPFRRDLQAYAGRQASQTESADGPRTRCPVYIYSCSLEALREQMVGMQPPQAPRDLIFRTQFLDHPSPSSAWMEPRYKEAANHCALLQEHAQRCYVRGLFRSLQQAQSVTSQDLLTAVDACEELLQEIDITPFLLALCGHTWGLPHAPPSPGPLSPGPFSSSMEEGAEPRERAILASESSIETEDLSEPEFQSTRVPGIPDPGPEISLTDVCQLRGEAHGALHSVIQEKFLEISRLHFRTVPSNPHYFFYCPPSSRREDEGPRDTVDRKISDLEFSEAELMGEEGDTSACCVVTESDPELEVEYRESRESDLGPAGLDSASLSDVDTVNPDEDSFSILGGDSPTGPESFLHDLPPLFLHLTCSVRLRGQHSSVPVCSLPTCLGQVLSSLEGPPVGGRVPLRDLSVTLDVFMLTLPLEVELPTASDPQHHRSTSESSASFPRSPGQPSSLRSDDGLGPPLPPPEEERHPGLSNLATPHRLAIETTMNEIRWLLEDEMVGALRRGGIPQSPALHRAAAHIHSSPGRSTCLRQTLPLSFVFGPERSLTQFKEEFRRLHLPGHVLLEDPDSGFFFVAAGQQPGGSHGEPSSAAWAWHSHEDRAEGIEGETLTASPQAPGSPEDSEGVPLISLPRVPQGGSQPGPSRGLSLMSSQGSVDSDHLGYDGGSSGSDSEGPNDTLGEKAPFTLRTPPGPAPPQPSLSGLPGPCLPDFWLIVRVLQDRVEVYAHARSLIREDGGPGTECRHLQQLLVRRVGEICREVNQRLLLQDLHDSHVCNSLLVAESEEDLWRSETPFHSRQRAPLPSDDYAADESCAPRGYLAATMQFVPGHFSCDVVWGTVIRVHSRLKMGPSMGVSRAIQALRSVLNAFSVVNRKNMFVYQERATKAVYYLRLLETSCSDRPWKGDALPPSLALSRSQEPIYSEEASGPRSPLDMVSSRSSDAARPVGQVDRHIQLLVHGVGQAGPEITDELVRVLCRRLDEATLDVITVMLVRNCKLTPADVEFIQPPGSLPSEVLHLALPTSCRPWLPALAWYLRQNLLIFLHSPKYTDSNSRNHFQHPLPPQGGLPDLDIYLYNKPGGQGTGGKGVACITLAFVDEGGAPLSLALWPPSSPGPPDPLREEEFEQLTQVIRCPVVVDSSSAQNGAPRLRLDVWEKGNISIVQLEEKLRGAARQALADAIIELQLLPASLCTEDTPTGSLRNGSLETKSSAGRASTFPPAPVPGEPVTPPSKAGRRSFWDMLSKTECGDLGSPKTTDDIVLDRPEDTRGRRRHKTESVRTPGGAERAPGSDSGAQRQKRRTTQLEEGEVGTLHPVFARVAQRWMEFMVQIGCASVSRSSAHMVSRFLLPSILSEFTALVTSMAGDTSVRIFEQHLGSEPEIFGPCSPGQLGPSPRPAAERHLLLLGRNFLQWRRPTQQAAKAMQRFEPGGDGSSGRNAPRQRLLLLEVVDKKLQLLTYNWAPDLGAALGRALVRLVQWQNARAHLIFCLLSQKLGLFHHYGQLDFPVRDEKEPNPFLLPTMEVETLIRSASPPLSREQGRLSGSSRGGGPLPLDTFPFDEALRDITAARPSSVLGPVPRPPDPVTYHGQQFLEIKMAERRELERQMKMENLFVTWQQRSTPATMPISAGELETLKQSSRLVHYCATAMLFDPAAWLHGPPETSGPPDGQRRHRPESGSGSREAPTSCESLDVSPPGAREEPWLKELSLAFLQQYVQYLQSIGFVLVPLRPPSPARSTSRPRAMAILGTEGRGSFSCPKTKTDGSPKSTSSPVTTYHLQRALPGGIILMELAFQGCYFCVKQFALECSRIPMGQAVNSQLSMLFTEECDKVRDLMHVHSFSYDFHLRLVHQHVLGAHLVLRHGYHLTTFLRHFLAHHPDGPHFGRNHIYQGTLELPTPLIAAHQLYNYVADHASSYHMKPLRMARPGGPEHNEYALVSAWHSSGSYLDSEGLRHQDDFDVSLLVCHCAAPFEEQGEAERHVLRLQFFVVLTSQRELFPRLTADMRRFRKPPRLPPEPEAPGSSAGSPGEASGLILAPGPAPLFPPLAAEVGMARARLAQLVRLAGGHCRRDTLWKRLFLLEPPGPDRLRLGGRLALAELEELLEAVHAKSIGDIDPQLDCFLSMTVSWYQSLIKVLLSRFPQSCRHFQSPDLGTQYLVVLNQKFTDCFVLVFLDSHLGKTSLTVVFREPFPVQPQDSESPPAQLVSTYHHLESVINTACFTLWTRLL
UniProt Q13043: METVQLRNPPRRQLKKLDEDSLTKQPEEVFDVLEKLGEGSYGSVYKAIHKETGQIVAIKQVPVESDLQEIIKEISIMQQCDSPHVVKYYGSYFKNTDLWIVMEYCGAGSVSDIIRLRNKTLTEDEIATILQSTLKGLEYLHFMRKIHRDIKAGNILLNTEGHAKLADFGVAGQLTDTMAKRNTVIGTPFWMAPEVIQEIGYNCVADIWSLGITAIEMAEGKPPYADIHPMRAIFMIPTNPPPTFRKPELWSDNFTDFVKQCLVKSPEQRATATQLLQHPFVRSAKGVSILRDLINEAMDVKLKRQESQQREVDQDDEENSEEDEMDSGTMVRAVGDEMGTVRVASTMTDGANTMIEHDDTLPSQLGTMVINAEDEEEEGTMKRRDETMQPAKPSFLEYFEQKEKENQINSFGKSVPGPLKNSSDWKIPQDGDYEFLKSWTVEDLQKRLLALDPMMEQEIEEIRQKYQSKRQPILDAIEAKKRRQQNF
UniProt O75528: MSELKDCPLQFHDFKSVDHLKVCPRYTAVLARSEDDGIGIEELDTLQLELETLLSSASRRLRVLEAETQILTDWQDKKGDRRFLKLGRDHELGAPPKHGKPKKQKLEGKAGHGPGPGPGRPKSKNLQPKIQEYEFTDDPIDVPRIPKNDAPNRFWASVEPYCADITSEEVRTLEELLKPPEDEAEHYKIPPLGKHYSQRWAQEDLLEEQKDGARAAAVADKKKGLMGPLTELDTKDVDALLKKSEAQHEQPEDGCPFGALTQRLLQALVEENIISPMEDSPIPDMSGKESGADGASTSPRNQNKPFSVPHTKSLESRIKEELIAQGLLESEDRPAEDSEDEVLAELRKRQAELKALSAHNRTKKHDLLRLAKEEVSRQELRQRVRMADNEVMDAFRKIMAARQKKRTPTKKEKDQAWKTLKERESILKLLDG
UniProt Q9NRL3: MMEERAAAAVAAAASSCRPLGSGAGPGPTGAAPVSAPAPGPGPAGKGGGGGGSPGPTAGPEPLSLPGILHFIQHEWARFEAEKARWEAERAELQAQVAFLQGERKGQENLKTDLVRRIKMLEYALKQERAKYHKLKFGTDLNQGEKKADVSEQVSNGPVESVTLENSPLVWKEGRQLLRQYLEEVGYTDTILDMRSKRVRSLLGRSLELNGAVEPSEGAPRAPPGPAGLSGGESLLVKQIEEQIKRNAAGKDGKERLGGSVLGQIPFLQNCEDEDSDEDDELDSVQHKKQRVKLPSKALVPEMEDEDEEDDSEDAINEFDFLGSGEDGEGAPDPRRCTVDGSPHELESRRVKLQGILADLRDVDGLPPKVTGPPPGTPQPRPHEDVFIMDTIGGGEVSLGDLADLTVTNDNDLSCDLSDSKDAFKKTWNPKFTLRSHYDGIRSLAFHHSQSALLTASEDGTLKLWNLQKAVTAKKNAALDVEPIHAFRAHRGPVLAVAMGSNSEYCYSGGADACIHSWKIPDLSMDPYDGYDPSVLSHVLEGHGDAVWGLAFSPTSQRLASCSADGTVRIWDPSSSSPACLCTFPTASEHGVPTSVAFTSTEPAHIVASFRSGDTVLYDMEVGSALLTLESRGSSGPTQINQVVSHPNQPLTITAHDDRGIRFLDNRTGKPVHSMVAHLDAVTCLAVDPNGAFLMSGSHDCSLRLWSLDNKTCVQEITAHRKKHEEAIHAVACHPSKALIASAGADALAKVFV
UniProt P53597: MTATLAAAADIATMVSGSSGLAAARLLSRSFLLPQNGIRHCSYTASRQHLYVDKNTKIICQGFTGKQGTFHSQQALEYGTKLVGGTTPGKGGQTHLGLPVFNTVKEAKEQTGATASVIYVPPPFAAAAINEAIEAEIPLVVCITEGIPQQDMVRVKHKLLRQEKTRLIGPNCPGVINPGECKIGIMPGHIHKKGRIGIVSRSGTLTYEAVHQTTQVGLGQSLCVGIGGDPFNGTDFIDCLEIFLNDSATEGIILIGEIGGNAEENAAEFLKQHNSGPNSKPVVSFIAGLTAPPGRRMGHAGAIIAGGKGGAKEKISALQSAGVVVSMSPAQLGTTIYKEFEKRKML
UniProt Q6UWL2: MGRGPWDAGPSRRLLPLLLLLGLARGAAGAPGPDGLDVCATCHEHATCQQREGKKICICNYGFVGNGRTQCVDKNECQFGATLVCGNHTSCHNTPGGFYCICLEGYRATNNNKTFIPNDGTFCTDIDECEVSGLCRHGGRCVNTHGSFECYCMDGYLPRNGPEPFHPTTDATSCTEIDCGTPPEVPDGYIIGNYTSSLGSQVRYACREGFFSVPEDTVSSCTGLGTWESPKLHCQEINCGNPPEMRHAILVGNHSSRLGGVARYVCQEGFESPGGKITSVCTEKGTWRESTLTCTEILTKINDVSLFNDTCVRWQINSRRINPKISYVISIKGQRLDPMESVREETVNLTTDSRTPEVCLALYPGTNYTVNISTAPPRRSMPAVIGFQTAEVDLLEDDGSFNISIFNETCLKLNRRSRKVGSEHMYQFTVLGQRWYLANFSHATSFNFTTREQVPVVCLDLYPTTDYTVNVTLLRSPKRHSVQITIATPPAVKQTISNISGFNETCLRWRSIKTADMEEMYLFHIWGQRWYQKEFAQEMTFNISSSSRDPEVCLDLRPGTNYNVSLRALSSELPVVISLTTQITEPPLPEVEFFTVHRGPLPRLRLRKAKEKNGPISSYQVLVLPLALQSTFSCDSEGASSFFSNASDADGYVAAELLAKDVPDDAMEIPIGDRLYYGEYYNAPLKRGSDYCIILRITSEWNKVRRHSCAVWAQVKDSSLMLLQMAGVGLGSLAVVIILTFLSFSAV
UniProt Q9P2W9: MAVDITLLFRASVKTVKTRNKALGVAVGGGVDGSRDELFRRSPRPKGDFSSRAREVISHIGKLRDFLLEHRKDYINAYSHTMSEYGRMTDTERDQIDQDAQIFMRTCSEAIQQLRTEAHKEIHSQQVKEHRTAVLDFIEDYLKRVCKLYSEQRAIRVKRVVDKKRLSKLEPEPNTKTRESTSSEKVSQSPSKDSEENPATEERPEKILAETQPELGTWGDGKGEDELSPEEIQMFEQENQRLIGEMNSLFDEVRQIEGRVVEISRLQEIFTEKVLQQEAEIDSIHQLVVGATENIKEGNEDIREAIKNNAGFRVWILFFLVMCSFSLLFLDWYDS

Tubastatin A = compound: CN1CCc2c(c3ccccc3n2Cc2ccc(C(=O)NO)cc2)C1 [Tubastatin A]
Outline: as §1

[1] = compound: CNC(=O)C1=CC=CC=C1NC2=NC(=NC=C2Cl)NC3=C(C=C(C=C3)N4CCOCC4)OC
Outline: as §1

[2] = compound: CNc1nc(-c2ccc3c(N)n[nH]c3c2)cc(N2C[C@@H](C(=O)NC3CCCCC3)CC[C@H]2C)n1
Outline: as §1

encorafenib = compound: COC(=O)N[C@@H](C)CNc1nccc(-c2cn(C(C)C)nc2-c2cc(Cl)cc(NS(C)(=O)=O)c2F)n1 [encorafenib]
Outline: as §1

[3] = compound: COC(=O)[C@H](CCSC)NC(=O)C1=C(C=C(C=C1)NC[C@H](CS)N)C2=CC=CC=C2
Outline: as §1

alisertib = compound: COc1cc(Nc2ncc3c(n2)-c2ccc(Cl)cc2C(c2c(F)cccc2OC)=NC3)ccc1C(=O)O [alisertib]
Outline: as §1

[4] = compound: COc1cc2nc(-c3cc(F)ccc3O)nc(N[C@@H]3CNC[C@H]3C(C)(C)O)c2cc1OC
Outline: as §1

gefitinib = compound: COc1cc2ncnc(Nc3ccc(F)c(Cl)c3)c2cc1OCCCN1CCOCC1 [gefitinib]
Outline: as §1

lapatinib = compound: CS(=O)(=O)CCNCc1ccc(-c2ccc3ncnc(Nc4ccc(OCc5cccc(F)c5)c(Cl)c4)c3c2)o1 [lapatinib]
Outline: as §1

pictilisib = compound: CS(=O)(=O)N1CCN(Cc2cc3nc(-c4cccc5[nH]ncc45)nc(N4CCOCC4)c3s2)CC1 [pictilisib]
Outline: as §1

[5] = compound: C[C@H](C1=CC=C(C=C1)C(=O)NC2=C3C=CNC3=NC=C2)N
Outline: as §1

duvelisib = compound: C[C@H](Nc1ncnc2nc[nH]c12)c1cc2cccc(Cl)c2c(=O)n1-c1ccccc1 [duvelisib]
Outline: as §1

gandotinib = compound: Cc1cc(Nc2cc(CN3CCOCC3)c3nc(C)c(Cc4ccc(Cl)cc4F)n3n2)n[nH]1 [gandotinib]
Outline: as §1

tozasertib = compound: Cc1cc(Nc2cc(N3CCN(C)CC3)nc(Sc3ccc(NC(=O)C4CC4)cc3)n2)n[nH]1 [tozasertib]
Outline: as §1

bafetinib = compound: Cc1ccc(NC(=O)c2ccc(CN3CC[C@H](N(C)C)C3)c(C(F)(F)F)c2)cc1Nc1nccc(-c2cncnc2)n1 [bafetinib]
Outline: as §1

[6] = compound: Cc1cccc(CC(=O)N2CCc3c2ccc(-c2cn(C)c4ncnc(N)c24)c3F)n1
Outline: as §1

defactinib = compound: CNC(=O)c1ccc(Nc2ncc(C(F)(F)F)c(NCc3nccnc3N(C)S(C)(=O)=O)n2)cc1 [defactinib]
Outline: as §1

crizotinib = compound: C[C@@H](Oc1cc(-c2cnn(C3CCNCC3)c2)cnc1N)c1c(Cl)ccc(F)c1Cl [crizotinib]
Outline: as §1

doramapimod = compound: Cc1ccc(-n2nc(C(C)(C)C)cc2NC(=O)Nc2ccc(OCCN3CCOCC3)c3ccccc23)cc1 [doramapimod]
Outline: as §1

Measured: log2 fold change

SZT2 (UniProt Q5T011)
inactive: alvocidib -0.169 | Tubastatin A 0.012 | [1] -0.002 | [2] 0.109 | encorafenib -0.011 | [3] -0.105 | alisertib -0.193 | [4] -0.031 | gefitinib 0.094 | lapatinib 0.275 | pictilisib 0.189 | [5] -0.108 | duvelisib -0.081 | gandotinib -0.17 | tozasertib -0.097 | bafetinib -0.214 | [6] 0.22

STK4 (UniProt Q13043)
inactive: alvocidib 0.011 | Tubastatin A -0.095 | [1] 0.365 | defactinib 0.231 | [2] 0 | encorafenib -0.073 | [3] -0.055 | alisertib 0.051 | [4] 0.257 | gefitinib 0.002 | lapatinib -0.029 | pictilisib -0.025 | crizotinib 0.382 | [5] -0.104 | duvelisib 0.004 | tozasertib 0.27 | doramapimod -0.027 | bafetinib -0.053 | [6] 0.062
active: gandotinib 0.504

TADA3 (UniProt O75528)
inactive: alvocidib 0.001 | Tubastatin A -0.04 | [1] 0.044 | defactinib -0.007 | [2] 0.06 | encorafenib 0.029 | [3] -0.024 | alisertib 0 | [4] 0.001 | gefitinib 0.03 | lapatinib -0.005 | pictilisib 0.009 | crizotinib 0.017 | [5] -0.09 | duvelisib -0.002 | gandotinib 0.143 | tozasertib 0.066 | doramapimod 0.006 | bafetinib -0.051 | [6] 0.087

SYK (UniProt P43405)
inactive: alvocidib -0.142 | Tubastatin A -0.015 | [1] -0.009 | defactinib -0.105 | [2] 0.115 | encorafenib 0.01 | [3] 0.154 | [4] 0.11 | gefitinib -0.004 | lapatinib -0.086 | pictilisib 0.017 | duvelisib 0.004 | gandotinib 0.272 | tozasertib 0.002 | doramapimod 0.021 | bafetinib -0.236 | [6] 0.261
active: [5] -0.479

Two records picked at random from the list so far:
SYK (UniProt P43405)
inactive: alvocidib -0.142 | Tubastatin A -0.015 | [1] -0.009 | defactinib -0.105 | [2] 0.115 | encorafenib 0.01 | [3] 0.154 | [4] 0.11 | gefitinib -0.004 | lapatinib -0.086 | pictilisib 0.017 | duvelisib 0.004 | gandotinib 0.272 | tozasertib 0.002 | doramapimod 0.021 | bafetinib -0.236 | [6] 0.261
active: [5] -0.479

TADA3 (UniProt O75528)
inactive: alvocidib 0.001 | Tubastatin A -0.04 | [1] 0.044 | defactinib -0.007 | [2] 0.06 | encorafenib 0.029 | [3] -0.024 | alisertib 0 | [4] 0.001 | gefitinib 0.03 | lapatinib -0.005 | pictilisib 0.009 | crizotinib 0.017 | [5] -0.09 | duvelisib -0.002 | gandotinib 0.143 | tozasertib 0.066 | doramapimod 0.006 | bafetinib -0.051 | [6] 0.087

More records.

STRN4 isoform 3 (UniProt Q9NRL3)
inactive: alvocidib -0.022 | Tubastatin A -0.029 | [1] 0.037 | defactinib 0.011 | [2] -0.031 | encorafenib 0.036 | [3] 0.063 | alisertib 0.03 | [4] -0.067 | gefitinib -0.034 | lapatinib 0.049 | pictilisib 0.009 | crizotinib -0.012 | [5] -0.033 | duvelisib -0.014 | gandotinib 0.037 | tozasertib 0.003 | doramapimod -0.034 | bafetinib -0.028 | [6] 0.068

SUCLG1 (UniProt P53597)
inactive: alvocidib 0.051 | Tubastatin A -0.061 | [1] -0.002 | defactinib 0.001 | [2] 0.008 | encorafenib -0.05 | [3] 0.108 | alisertib 0.038 | [4] 0 | gefitinib -0.031 | lapatinib 0 | pictilisib -0.038 | crizotinib -0.08 | [5] 0.037 | duvelisib 0.014 | gandotinib -0.066 | tozasertib 0 | doramapimod 0.072 | bafetinib -0.026 | [6] -0.003

TAF1B (UniProt Q53T94)
inactive: alvocidib 0.175 | Tubastatin A -0.083 | defactinib -0.024 | [2] 0.614 | encorafenib 0.073 | [3] -0.13 | alisertib -0.177 | [4] -0.047 | gefitinib 0.016 | lapatinib 0.012 | pictilisib 0.062 | crizotinib -0.036 | [5] -0.058 | duvelisib 0.34 | gandotinib -0.157 | tozasertib 0.304 | doramapimod 0.017 | bafetinib -0.004 | [6] 0.134

SUSD1 isoform 2 (UniProt Q6UWL2)
inactive: alvocidib -0.12 | Tubastatin A 0.01 | [1] -0.087 | [2] 0.1 | encorafenib 0.09 | [3] -0.145 | crizotinib 0.038 | [5] -0.036 | duvelisib 0.15 | gandotinib -0.023 | tozasertib 0.037 | doramapimod 0.024 | [6] 0.06

STX18 (UniProt Q9P2W9)
inactive: alvocidib -0.011 | Tubastatin A 0.096 | [1] -0.297 | defactinib -0.062 | [2] -0.086 | encorafenib 0.001 | [3] 0.019 | alisertib 0.046 | [4] 0.072 | gefitinib 0.06 | lapatinib -0.007 | pictilisib 0.058 | crizotinib -0.069 | [5] -0.023 | duvelisib -0.029 | gandotinib -0.093 | tozasertib 0.187 | doramapimod 0.002 | bafetinib -0.072 | [6] 0.06

SYNCRIP isoform 3 (UniProt O60506)
inactive: alvocidib -0.008 | Tubastatin A 0.049 | [1] 0.085 | defactinib -0.052 | encorafenib -0.042 | [3] 0.026 | alisertib 0.062 | [4] 0.005 | gefitinib 0.013 | lapatinib -0.169 | pictilisib -0.094 | crizotinib -0.019 | [5] -0.032 | gandotinib -0.006 | tozasertib -0.017 | doramapimod -0.042 | bafetinib 0.051 | [6] 0.017
